# About 3,700 (1.2%) of roughly 300,000 compounds were called active. Inconclusive results, whose numbers are uncertain, are shown with a selection of clear calls. Calls follow the shape of the full dose curve; tested in HEK293 cells. Where the call is inconclusive, the potency comes from a doubtful curve fit.
# Experiment: qHTS for Inhibitors of binding or entry into cells for Lassa Virus; also: nearly all actives have a fitted effect of over 50% in size
# Settings: Lassa virus pseudotype entry inhibition, cell reporter; activity change, negative = inhibition: at 37.9 µM (top of the series) unless noted
# % is scaled to controls: 0 for no effect and ±100 for the full control effect; potency is read from the fitted curve at half-maximal effect.
Compound,Potency,"activity change, negative = inhibition"
CNC(=S)N(C)CCc1cc2c(c(OC)c1C=C1C(=O)NC(=O)NC1=O)OCO2,"inconclusive: 1.12 µM [inhibitor, full curve, poor fit]",–
CCCc1ccc(OCc2nc(-c3ccc(NC(=O)c4ccco4)cc3)no2)cc1,active: 10 µM,–
O=c1c2ccccc2nc(/C=C/c2cccc([N+](=O)[O-])c2)n1CCCO,"inconclusive: 25.1 µM [inhibitor, single point]",–
Cn1/c(=N/N=C/c2ccccn2)sc2ccccc21,"inconclusive: 35.5 µM [inhibitor, single point]",–
Cc1ccc(C(CCNC(C)c2cccs2)c2ccco2)cc1 (stereo unspecified),"inconclusive: 8.91 µM [inhibitor, partial curve, poor fit]",–
Cc1nnsc1C(=O)NNS(=O)(=O)c1ccccc1,"inconclusive: 29.1 µM [activator, single point]",–
CC(C)Cc1cc(C(=O)NCc2ccc(Cl)cc2)no1,–,inactive: -2.07% [at 46.1 µM]
O=C1NC(=O)C2(CCCC2)N1,"inconclusive: 0.891 µM [inhibitor, single point]",–
NNC(=O)c1cccc(COc2cccc(Br)c2)c1,"inconclusive: 1.46 µM [activator, partial curve, poor fit]",–
COCC(=O)N1CCCN(c2nc3c(C)cccc3cc2C#N)CC1,"inconclusive: 20.6 µM [inhibitor, single point]",–
Cc1ccc(-c2cc3cccc[n+]3cc2-c2ccc(C)cc2)cc1,active: 6.51 µM,–
CCCCCc1ccc(-c2ccc(C(=O)O)cc2)nc1,"inconclusive: 13 µM [inhibitor, single point]",–
O=[N+]([O-])c1ccc(Nc2nc(N/N=C/c3cccc(F)c3)nc(N3CCCC3)n2)cc1,"inconclusive: 7.94 µM [inhibitor, partial curve, poor fit]",–
COc1cc(NC(=O)Nc2ccc3c(c2)OCO3)cc(OC)c1OC,–,inactive: -3.52%
CCC(Oc1nc2ccccc2nc1-c1ccccc1NC(C)=O)C(=O)c1ccccc1 (stereo unspecified),active: 18.3 µM,–
COc1cccc(/C=N/NC(=O)c2ccncc2)c1OC(=O)c1ccc(Br)cc1,"inconclusive: 12.6 µM [inhibitor, partial curve]",–
O=S(=O)(NC1CCN(Cc2ccccc2)CC1)c1ccc2ccccc2c1,–,inactive: -9.47%
Cc1ccc(NC(=O)Nc2nnc(SCC(=O)N(C(C)C)C(C)C)s2)cc1,–,inactive: -7.58% [at 46.1 µM]
N/C(=N\OC(=O)CC1CCCCC1)c1cccc([N+](=O)[O-])c1,–,inactive: 0.138%
CNc1nc(-c2ccccc2)[n+](-c2ccc(C)cc2)s1,–,inactive: 27.5%
O=C(CCc1nc2sc3c(c2c(=O)[nH]1)CCCC3)NCCOc1ccccc1,"inconclusive: 17.8 µM [activator, single point]",–

# Three entries out of the list, sorted by count of non-hydrogen atoms, falling.
Compound,Potency,"activity change, negative = inhibition"
CNC(=S)N(C)CCc1cc2c(c(OC)c1C=C1C(=O)NC(=O)NC1=O)OCO2,"inconclusive: 1.12 µM [inhibitor, full curve, poor fit]",–
O=S(=O)(NC1CCN(Cc2ccccc2)CC1)c1ccc2ccccc2c1,–,inactive: -9.47%
CC(C)Cc1cc(C(=O)NCc2ccc(Cl)cc2)no1,–,inactive: -2.07% [at 46.1 µM]
